PubChem BioAssay AID504744, Drosophila RNAi Screening Center | 2011
The deposit covers about 23,000 reagents; below is an unselected part of those that have a named target and a result. In the full data, 98 (0.43%) are marked active. 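Only hit calls are given; the phospho-dAkt signals, z-scores and hit direction were not deposited.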 The numbers tell different reagents against one gene apart. A plus sign joins genes that one reagent is predicted to hit. No sequences are given here.

Assay: 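Identify dsRNAs that increase or decrease phospho-dAkt after insulin treatment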 (primary screen)
Cell system: Drosophila Kc167 cells
Reagent: long dsRNA against Drosophila genes, 250 ng dsRNA per well of a 384-well plate
Duration: 3 days of knock-down, then overnight serum-free starvation before stimulation
Conditions: bovine insulin at 387 nM for 10 minutes after 12 h without serum
Measured: 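Per-well phospho-dAkt level from an in-cell fluorescent antibody stain, divided by a DNA-dye signal; log2 residuals turned into z-scores that take cell number into account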
Hit rule: 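Under insulin, a gene counts as a hit if the average z-score of two replicates lies above 2.5 or below -2.5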

gene | reagent no. | activity call
Uba1 | 1 | inactive
CG1494 | 1 | inactive
Klp59C | 1 | inactive
vn | 1 | inactive
Nepl12 | 1 | inactive
Bmcp | 1 | inactive
CG18659 | 1 | inactive
Kdsr | 1 | inactive
krimp | 1 | inactive
CG6845 | 1 | inactive
CG4462 | 1 | inactive
CG16786 | 1 | inactive
ATPsynCF6 | 1 | inactive
CG5376 | 1 | inactive
CG30428 | 1 | inactive
UGP + PGRP-LF | 1 | inactive
Pde8 | 1 | inactive
Vap33 | 1 | inactive
Sps2 | 1 | inactive
CG13850 | 1 | inactive
CG14377 | 1 | inactive
CG13717 (retired record) | 1 | inactive
CG13717 (retired record) | 2 | inactive
CG13717 (retired record) | 3 | inactive
CG13717 (retired record) | 4 | inactive
HisCl1 | 1 | inactive
U2af38 | 1 | inactive
laza | 1 | inactive
Naa80 | 1 | inactive
Nadk1a | 1 | inactive
Nadk1a | 2 | inactive
CG42591 | 1 | inactive
CG10205 | 1 | inactive
Gp150 | 1 | inactive
CG17752 | 1 | inactive
CG34300 | 1 | inactive
CG42594 | 1 | inactive
CG42594 | 2 | inactive
CG42613 | 1 | inactive
CG42613 | 2 | inactive
CG42613 | 3 | inactive
CG42671 | 1 | inactive
CG42671 | 2 | inactive
Zn72D | 1 | inactive
Gp93 | 1 | inactive
AOX3 | 1 | inactive
Dnaaf3 | 1 | inactive
CG33631 | 1 | inactive
lms | 1 | inactive
Usp8 | 1 | inactive
CG16837 | 1 | inactive
Pkcdelta | 1 | inactive
Pkcdelta | 2 | inactive
Pak3 | 1 | inactive
Megf8 | 1 | inactive
Oseg6 | 1 | inactive
CG32457 | 1 | inactive
CG32457 | 2 | inactive
Ddx56 | 1 | inactive
Ccdc58 + CG34116 | 1 | inactive
pck | 1 | inactive
TwdlE | 1 | inactive
snf | 1 | inactive
Or92a | 1 | inactive
CG2121 | 1 | inactive
CG2121 | 2 | inactive
CG32829 | 1 | active
CG32829 | 2 | inactive
CG9029 | 1 | inactive
CG7720 | 1 | inactive
CG7720 | 2 | inactive
Moca-cyp | 1 | inactive
l(2)k05819 | 1 | inactive
CG10041 | 1 | inactive
CG13877 + pyx | 1 | inactive
CG9676 | 1 | inactive
Seipin | 1 | inactive
Lrt | 1 | active
Cad99C | 1 | inactive
Cad99C | 2 | inactive
kipf | 1 | inactive
kipf | 2 | inactive
CG32756 | 1 | inactive
ProRS-m | 1 | inactive
wuho | 1 | inactive
polo | 1 | inactive
polo | 2 | inactive
RpS10a | 1 | inactive
CG34223 | 1 | inactive
CARPA | 1 | inactive
CARPA | 2 | inactive
CG3803 | 1 | inactive
tin | 1 | inactive
tin | 2 | inactive
Art8 | 1 | inactive
Cap-D3 | 1 | inactive
Fbxl4 | 1 | inactive
Lst8 | 1 | active
eIF3f1 | 1 | inactive
BOD1 | 1 | inactive
akirin | 1 | inactive
nAChRalpha4 | 1 | inactive
mRpL30 | 1 | inactive
CG32795 | 1 | inactive
CG32795 | 2 | inactive
dsx | 1 | inactive
dsx | 2 | inactive
dsx | 3 | inactive
Ric | 1 | inactive
CG7987 | 1 | inactive
CG10866 | 1 | inactive
CG14314 | 1 | inactive
yrt | 1 | inactive
prod | 1 | inactive
Crz | 1 | inactive
CG34054 | 1 | inactive
tgy | 1 | inactive
CG9757 | 1 | inactive
CG9757 | 2 | inactive
CG34125 | 1 | inactive
GluRIIA | 1 | inactive
Wnt6 | 1 | inactive
CG5498 | 1 | inactive
AGO1 | 1 | active
CG17816 | 1 | inactive
hoe1 | 1 | inactive
hoe1 | 2 | inactive
hoe1 | 3 | inactive
stas | 1 | inactive
CG13457 | 1 | inactive
CG33303 | 1 | inactive
CG17199 | 1 | inactive
E(spl)m5-HLH | 1 | inactive
stv | 1 | inactive
stv | 2 | inactive
Ir21a | 1 | inactive
Obp19b | 1 | inactive
CG5883 | 1 | inactive
Spn27A | 1 | inactive
CG1894 | 1 | inactive
CG14960 | 1 | inactive
Ankrd49 | 1 | inactive
CG16787 | 1 | inactive
Rab8 | 1 | inactive
cdi | 1 | inactive
olf186-M | 1 | inactive
Bap170 | 1 | inactive
Bap170 | 2 | inactive
CG12902 | 1 | inactive
byn | 1 | inactive
tup | 1 | inactive
Nprl3 | 1 | inactive
Ku80 | 1 | inactive
sowah | 1 | inactive
sowah | 2 | inactive
Actn3 | 1 | inactive
CG5521 | 1 | inactive

As entered above:
tgy, activity call = inactive
Result of Ankrd49 in “activity call”: inactive
Megf8, activity call → inactive
For “activity call”, CG10866 shows inactive
For “activity call”, krimp has inactive
For “activity call”, ATPsynCF6 reads inactive
